This continues a long series; more values of the same kind are listed elsewhere.
System: E. coli AG100tet
Test: EtBr accumulation by real-time fluorometry

## CC[n+]1c(-c2ccccc2)c2cc(N)ccc2c2ccc(N)cc21 [EtBr, ethidium bromide]
EtBr 0.125 µg/ml, cycle 1
  EtBr fluorescence: 1.579
EtBr 0.125 µg/ml, cycle 2
  EtBr fluorescence: 1.596
EtBr 0.125 µg/ml, cycle 3
  EtBr fluorescence: 1.591
EtBr 0.125 µg/ml, cycle 4
  EtBr fluorescence: 1.572
EtBr 0.125 µg/ml, cycle 5
  EtBr fluorescence: 1.6059
EtBr 0.125 µg/ml, cycle 6
  EtBr fluorescence: 1.601
EtBr 0.125 µg/ml, cycle 7
  EtBr fluorescence: 1.639
EtBr 0.125 µg/ml, cycle 8
  EtBr fluorescence: 1.616
EtBr 0.125 µg/ml, cycle 9
  EtBr fluorescence: 1.628
EtBr 0.125 µg/ml, cycle 10
  EtBr fluorescence: 1.597
EtBr 0.125 µg/ml, cycle 11
  EtBr fluorescence: 1.6576
EtBr 0.125 µg/ml, cycle 12
  EtBr fluorescence: 1.607
EtBr 0.125 µg/ml, cycle 13
  EtBr fluorescence: 1.624
EtBr 0.125 µg/ml, cycle 14
  EtBr fluorescence: 1.6022
EtBr 0.125 µg/ml, cycle 15
  EtBr fluorescence: 1.628
EtBr 0.125 µg/ml, cycle 16
  EtBr fluorescence: 1.633
EtBr 0.125 µg/ml, cycle 17
  EtBr fluorescence: 1.6247
EtBr 0.125 µg/ml, cycle 18
  EtBr fluorescence: 1.645
EtBr 0.125 µg/ml, cycle 19
  EtBr fluorescence: 1.649
EtBr 0.125 µg/ml, cycle 20
  EtBr fluorescence: 1.6211
EtBr 0.125 µg/ml, cycle 21
  EtBr fluorescence: 1.625
EtBr 0.125 µg/ml, cycle 22
  EtBr fluorescence: 1.63
EtBr 0.125 µg/ml, cycle 23
  EtBr fluorescence: 1.629
EtBr 0.125 µg/ml, cycle 24
  EtBr fluorescence: 1.622
EtBr 0.125 µg/ml, cycle 25
  EtBr fluorescence: 1.646
EtBr 0.125 µg/ml, cycle 26
  EtBr fluorescence: 1.698
EtBr 0.125 µg/ml, cycle 27
  EtBr fluorescence: 1.62
EtBr 0.125 µg/ml, cycle 28
  EtBr fluorescence: 1.632
EtBr 0.125 µg/ml, cycle 29
  EtBr fluorescence: 1.639
EtBr 0.125 µg/ml, cycle 30
  EtBr fluorescence: 1.657
EtBr 0.5 µg/ml, cycle 1
  EtBr fluorescence: 2.507
EtBr 0.5 µg/ml, cycle 2
  EtBr fluorescence: 2.634
EtBr 0.5 µg/ml, cycle 3
  EtBr fluorescence: 2.599
EtBr 0.5 µg/ml, cycle 6
  EtBr fluorescence: 2.742
EtBr 0.5 µg/ml, cycle 7
  EtBr fluorescence: 2.721
EtBr 0.5 µg/ml, cycle 8
  EtBr fluorescence: 2.856
EtBr 0.5 µg/ml, cycle 9
  EtBr fluorescence: 2.747
EtBr 0.5 µg/ml, cycle 10
  EtBr fluorescence: 2.808
EtBr 0.5 µg/ml, cycle 11
  EtBr fluorescence: 2.828
EtBr 0.5 µg/ml, cycle 12
  EtBr fluorescence: 2.854
EtBr 0.5 µg/ml, cycle 13
  EtBr fluorescence: 2.8218
EtBr 0.5 µg/ml, cycle 14
  EtBr fluorescence: 2.805
EtBr 0.5 µg/ml, cycle 15
  EtBr fluorescence: 2.868
EtBr 0.5 µg/ml, cycle 16
  EtBr fluorescence: 2.841
EtBr 0.5 µg/ml, cycle 17
  EtBr fluorescence: 2.779
EtBr 0.5 µg/ml, cycle 18
  EtBr fluorescence: 2.896
EtBr 0.5 µg/ml, cycle 19
  EtBr fluorescence: 2.838
EtBr 0.5 µg/ml, cycle 20
  EtBr fluorescence: 2.938
EtBr 0.5 µg/ml, cycle 21
  EtBr fluorescence: 2.9
EtBr 0.5 µg/ml, cycle 22
  EtBr fluorescence: 2.884
EtBr 0.5 µg/ml, cycle 23
  EtBr fluorescence: 2.888
EtBr 0.5 µg/ml, cycle 24
  EtBr fluorescence: 2.89
EtBr 0.5 µg/ml, cycle 25
  EtBr fluorescence: 2.934
EtBr 0.5 µg/ml, cycle 26
  EtBr fluorescence: 2.927
EtBr 0.5 µg/ml, cycle 27
  EtBr fluorescence: 2.878
EtBr 0.5 µg/ml, cycle 28
  EtBr fluorescence: 2.899
EtBr 0.5 µg/ml, cycle 29
  EtBr fluorescence: 2.928
EtBr 0.5 µg/ml, cycle 30
  EtBr fluorescence: 2.936
EtBr 1 µg/ml, cycle 1
  EtBr fluorescence: 4.259
EtBr 1 µg/ml, cycle 2
  EtBr fluorescence: 4.357
EtBr 1 µg/ml, cycle 3
  EtBr fluorescence: 4.431
EtBr 1 µg/ml, cycle 4
  EtBr fluorescence: 4.51
EtBr 1 µg/ml, cycle 5
  EtBr fluorescence: 4.624
EtBr 1 µg/ml, cycle 6
  EtBr fluorescence: 4.527
EtBr 1 µg/ml, cycle 7
  EtBr fluorescence: 4.696
EtBr 1 µg/ml, cycle 8
  EtBr fluorescence: 4.608
EtBr 1 µg/ml, cycle 9
  EtBr fluorescence: 4.652
EtBr 1 µg/ml, cycle 10
  EtBr fluorescence: 4.634
EtBr 1 µg/ml, cycle 11
  EtBr fluorescence: 4.797
EtBr 1 µg/ml, cycle 12
  EtBr fluorescence: 4.757
EtBr 1 µg/ml, cycle 13
  EtBr fluorescence: 4.803
EtBr 1 µg/ml, cycle 14
  EtBr fluorescence: 4.744
EtBr 1 µg/ml, cycle 15
  EtBr fluorescence: 4.718
EtBr 1 µg/ml, cycle 16
  EtBr fluorescence: 4.905
EtBr 1 µg/ml, cycle 17
  EtBr fluorescence: 4.848
EtBr 1 µg/ml, cycle 18
  EtBr fluorescence: 4.742
EtBr 1 µg/ml, cycle 19
  EtBr fluorescence: 4.921
EtBr 1 µg/ml, cycle 20
  EtBr fluorescence: 4.874
EtBr 1 µg/ml, cycle 21
  EtBr fluorescence: 4.9036
EtBr 1 µg/ml, cycle 22
  EtBr fluorescence: 4.896
EtBr 1 µg/ml, cycle 23
  EtBr fluorescence: 4.921
EtBr 1 µg/ml, cycle 24
  EtBr fluorescence: 4.951
EtBr 1 µg/ml, cycle 25
  EtBr fluorescence: 5.054
EtBr 1 µg/ml, cycle 26
  EtBr fluorescence: 4.968
EtBr 1 µg/ml, cycle 27
  EtBr fluorescence: 4.962
EtBr 1 µg/ml, cycle 28
  EtBr fluorescence: 5.012
EtBr 1 µg/ml, cycle 29
  EtBr fluorescence: 4.975
EtBr 1 µg/ml, cycle 30
  EtBr fluorescence: 5.133
EtBr 2 µg/ml, cycle 1
  EtBr fluorescence: 8.337
EtBr 2 µg/ml, cycle 2
  EtBr fluorescence: 8.495
EtBr 2 µg/ml, cycle 3
  EtBr fluorescence: 8.83
EtBr 2 µg/ml, cycle 4
  EtBr fluorescence: 8.842
EtBr 2 µg/ml, cycle 5
  EtBr fluorescence: 8.984
EtBr 2 µg/ml, cycle 6
  EtBr fluorescence: 8.849
EtBr 2 µg/ml, cycle 7
  EtBr fluorescence: 8.931
EtBr 2 µg/ml, cycle 8
  EtBr fluorescence: 8.985
EtBr 2 µg/ml, cycle 9
  EtBr fluorescence: 9.166
EtBr 2 µg/ml, cycle 10
  EtBr fluorescence: 9.117
EtBr 2 µg/ml, cycle 11
  EtBr fluorescence: 9.27
EtBr 2 µg/ml, cycle 12
  EtBr fluorescence: 9.263
EtBr 2 µg/ml, cycle 13
  EtBr fluorescence: 9.311
EtBr 2 µg/ml, cycle 14
  EtBr fluorescence: 9.331
EtBr 2 µg/ml, cycle 15
  EtBr fluorescence: 9.332

Reference: article PMC5433425 (PeerJ, 2017)
